# Results as given in the supplement of paper PMC7666118.
# Protein sequences, listed by entry. Tags and fused reporters are not part of them. Lines headed by an entry give the natural chain unless they say otherwise; changes in a name come on top.
# UniProt O60493, whole entry: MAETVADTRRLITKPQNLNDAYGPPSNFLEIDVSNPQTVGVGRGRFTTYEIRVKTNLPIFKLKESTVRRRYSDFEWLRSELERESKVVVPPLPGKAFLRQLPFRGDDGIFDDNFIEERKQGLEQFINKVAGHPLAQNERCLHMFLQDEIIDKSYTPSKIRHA
# UniProt Q96DI7: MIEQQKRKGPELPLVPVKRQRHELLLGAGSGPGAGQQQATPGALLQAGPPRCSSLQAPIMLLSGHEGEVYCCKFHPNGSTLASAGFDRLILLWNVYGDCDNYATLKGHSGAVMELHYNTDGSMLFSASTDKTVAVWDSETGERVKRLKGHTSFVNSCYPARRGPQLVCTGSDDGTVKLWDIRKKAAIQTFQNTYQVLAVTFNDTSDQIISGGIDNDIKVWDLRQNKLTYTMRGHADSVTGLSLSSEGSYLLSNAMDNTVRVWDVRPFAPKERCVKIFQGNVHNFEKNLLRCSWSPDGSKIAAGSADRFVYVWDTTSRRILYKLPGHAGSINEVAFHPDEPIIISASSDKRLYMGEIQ
# UniProt P62306, whole entry, looked up: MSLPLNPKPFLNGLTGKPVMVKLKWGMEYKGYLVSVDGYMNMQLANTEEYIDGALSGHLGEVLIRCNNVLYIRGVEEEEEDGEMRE
# UniProt P30626: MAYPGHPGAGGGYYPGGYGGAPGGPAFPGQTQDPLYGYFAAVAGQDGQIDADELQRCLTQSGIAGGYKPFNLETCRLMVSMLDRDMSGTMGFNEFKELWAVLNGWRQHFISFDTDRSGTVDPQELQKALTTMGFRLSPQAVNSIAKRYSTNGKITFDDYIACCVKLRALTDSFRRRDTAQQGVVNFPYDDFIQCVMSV
# UniProt Q9NTJ3, whole entry: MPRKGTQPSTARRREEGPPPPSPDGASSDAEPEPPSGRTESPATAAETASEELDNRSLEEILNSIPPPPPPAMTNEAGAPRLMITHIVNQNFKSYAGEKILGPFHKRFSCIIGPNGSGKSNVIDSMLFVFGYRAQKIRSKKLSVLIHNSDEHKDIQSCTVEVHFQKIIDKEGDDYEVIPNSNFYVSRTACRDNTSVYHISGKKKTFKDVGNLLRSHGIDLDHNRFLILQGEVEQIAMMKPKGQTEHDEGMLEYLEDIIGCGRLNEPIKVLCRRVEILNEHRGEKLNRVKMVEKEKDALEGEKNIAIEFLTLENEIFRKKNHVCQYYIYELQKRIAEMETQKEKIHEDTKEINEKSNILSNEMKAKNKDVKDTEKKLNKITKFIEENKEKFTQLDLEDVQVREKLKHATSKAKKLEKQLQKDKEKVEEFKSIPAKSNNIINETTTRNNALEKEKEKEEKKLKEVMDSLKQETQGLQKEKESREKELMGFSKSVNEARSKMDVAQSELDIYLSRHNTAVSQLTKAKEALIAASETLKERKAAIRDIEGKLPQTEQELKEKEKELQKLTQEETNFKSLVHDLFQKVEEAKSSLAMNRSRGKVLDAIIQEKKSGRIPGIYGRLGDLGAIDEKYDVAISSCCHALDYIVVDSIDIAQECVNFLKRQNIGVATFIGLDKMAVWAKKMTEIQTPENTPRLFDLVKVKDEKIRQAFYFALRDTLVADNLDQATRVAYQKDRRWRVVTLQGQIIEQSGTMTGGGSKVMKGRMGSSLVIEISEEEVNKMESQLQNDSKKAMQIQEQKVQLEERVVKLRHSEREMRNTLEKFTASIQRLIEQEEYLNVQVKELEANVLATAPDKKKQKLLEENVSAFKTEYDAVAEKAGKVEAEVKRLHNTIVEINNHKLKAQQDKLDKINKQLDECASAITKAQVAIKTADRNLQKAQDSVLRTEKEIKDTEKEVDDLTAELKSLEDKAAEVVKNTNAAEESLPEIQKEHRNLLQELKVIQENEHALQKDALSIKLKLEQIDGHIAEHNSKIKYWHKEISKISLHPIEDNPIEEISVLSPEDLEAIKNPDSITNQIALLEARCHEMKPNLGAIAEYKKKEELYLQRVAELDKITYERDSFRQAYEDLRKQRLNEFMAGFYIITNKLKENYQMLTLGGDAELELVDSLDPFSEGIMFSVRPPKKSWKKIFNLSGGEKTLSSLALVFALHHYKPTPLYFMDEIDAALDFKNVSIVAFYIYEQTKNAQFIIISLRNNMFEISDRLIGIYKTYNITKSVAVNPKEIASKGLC
# UniProt O43752: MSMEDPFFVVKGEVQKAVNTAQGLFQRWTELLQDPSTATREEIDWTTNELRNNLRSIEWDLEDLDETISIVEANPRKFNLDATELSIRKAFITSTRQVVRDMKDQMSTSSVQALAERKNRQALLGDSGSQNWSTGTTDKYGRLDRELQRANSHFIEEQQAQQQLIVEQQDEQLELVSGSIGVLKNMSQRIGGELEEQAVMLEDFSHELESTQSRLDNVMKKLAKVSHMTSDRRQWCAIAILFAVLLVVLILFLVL
# UniProt Q9Y5X1: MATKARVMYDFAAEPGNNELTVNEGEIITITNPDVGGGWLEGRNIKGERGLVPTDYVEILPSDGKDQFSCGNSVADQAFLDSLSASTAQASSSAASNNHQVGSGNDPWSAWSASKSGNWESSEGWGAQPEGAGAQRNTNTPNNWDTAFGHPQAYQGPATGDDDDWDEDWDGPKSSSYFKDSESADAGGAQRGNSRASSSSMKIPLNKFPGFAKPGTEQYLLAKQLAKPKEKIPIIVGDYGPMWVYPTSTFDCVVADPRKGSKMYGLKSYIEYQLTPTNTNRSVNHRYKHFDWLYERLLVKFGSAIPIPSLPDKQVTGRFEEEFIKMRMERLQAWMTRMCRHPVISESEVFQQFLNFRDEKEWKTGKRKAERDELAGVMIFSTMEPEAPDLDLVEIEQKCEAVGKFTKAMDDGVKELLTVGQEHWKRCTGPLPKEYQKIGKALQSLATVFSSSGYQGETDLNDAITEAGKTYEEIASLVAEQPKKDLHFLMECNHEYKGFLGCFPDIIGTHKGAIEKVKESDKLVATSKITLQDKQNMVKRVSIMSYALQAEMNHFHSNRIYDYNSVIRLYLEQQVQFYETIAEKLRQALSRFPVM
# UniProt P50502: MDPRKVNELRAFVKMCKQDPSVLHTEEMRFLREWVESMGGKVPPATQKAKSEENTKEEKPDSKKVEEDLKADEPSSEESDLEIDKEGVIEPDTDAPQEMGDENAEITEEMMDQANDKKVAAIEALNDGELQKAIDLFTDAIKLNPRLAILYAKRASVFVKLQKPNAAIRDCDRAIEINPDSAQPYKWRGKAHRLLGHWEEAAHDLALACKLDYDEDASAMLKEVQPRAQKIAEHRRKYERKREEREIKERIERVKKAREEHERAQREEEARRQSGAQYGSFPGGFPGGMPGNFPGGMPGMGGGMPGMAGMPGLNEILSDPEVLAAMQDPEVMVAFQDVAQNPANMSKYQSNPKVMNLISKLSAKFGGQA
# UniProt Q9BWG4: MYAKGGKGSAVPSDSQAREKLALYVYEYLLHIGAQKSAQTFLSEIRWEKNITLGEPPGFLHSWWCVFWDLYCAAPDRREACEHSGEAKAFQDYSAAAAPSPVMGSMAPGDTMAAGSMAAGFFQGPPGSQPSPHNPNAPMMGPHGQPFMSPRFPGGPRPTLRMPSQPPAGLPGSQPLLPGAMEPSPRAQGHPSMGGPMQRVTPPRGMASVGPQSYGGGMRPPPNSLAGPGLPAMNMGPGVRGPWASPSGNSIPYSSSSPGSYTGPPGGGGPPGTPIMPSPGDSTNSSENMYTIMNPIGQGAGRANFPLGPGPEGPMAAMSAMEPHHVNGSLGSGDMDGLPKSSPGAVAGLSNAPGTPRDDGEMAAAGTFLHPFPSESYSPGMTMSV
# UniProt Q8TDR2: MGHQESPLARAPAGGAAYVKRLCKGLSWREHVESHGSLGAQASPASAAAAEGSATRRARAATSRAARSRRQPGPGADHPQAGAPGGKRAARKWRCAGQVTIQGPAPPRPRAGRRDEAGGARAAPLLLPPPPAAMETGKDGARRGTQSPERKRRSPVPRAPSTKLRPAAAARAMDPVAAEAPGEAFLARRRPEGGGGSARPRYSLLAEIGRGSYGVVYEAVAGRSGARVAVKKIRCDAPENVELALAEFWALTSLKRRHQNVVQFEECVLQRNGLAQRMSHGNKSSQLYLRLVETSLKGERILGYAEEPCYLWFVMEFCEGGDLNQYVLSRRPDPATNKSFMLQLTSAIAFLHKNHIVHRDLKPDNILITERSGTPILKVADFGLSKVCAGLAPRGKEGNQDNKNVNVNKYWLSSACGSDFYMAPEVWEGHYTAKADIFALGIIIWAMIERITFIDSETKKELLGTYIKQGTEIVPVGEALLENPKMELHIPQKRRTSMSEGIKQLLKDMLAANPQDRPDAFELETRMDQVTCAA
# UniProt P40763, whole entry: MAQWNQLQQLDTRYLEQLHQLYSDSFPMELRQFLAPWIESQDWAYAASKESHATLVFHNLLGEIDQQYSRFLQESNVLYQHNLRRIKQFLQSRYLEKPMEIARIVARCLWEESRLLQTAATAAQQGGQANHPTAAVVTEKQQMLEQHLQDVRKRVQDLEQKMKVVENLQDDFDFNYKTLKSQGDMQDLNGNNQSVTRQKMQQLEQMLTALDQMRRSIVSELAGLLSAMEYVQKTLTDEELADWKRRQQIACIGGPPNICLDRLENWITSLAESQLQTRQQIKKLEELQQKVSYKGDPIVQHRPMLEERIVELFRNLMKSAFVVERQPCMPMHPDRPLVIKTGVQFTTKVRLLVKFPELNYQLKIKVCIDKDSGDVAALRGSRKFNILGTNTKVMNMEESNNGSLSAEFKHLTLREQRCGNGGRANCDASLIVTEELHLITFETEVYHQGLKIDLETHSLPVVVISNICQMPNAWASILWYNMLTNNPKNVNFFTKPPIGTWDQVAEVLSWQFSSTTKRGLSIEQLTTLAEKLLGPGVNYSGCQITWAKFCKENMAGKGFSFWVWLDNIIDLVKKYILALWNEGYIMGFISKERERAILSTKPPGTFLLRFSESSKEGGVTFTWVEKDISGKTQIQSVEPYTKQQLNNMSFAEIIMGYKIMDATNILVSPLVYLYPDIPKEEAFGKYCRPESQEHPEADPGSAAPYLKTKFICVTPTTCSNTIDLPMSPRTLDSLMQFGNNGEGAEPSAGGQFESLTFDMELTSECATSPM
# UniProt P08047, whole entry: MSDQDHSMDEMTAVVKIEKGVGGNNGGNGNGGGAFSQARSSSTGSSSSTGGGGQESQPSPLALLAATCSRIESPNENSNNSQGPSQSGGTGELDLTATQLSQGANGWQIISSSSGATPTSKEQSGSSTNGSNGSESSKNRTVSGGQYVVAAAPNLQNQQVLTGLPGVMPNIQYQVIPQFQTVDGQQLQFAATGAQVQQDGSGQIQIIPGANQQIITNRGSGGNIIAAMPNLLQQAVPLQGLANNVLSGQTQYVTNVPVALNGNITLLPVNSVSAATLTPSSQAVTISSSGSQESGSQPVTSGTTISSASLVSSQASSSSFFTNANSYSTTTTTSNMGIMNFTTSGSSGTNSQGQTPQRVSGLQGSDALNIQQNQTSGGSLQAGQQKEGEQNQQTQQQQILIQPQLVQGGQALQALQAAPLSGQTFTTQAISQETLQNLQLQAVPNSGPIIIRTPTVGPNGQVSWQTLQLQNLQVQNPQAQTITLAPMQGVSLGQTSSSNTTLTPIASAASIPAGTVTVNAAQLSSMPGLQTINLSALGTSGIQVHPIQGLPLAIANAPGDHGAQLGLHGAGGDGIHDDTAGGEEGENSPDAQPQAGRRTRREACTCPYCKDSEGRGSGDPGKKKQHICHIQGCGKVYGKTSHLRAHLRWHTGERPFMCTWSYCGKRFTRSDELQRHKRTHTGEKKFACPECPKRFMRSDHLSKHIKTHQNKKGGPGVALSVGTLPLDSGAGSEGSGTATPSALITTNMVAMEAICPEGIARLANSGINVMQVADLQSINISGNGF
# UniProt Q9NRH2: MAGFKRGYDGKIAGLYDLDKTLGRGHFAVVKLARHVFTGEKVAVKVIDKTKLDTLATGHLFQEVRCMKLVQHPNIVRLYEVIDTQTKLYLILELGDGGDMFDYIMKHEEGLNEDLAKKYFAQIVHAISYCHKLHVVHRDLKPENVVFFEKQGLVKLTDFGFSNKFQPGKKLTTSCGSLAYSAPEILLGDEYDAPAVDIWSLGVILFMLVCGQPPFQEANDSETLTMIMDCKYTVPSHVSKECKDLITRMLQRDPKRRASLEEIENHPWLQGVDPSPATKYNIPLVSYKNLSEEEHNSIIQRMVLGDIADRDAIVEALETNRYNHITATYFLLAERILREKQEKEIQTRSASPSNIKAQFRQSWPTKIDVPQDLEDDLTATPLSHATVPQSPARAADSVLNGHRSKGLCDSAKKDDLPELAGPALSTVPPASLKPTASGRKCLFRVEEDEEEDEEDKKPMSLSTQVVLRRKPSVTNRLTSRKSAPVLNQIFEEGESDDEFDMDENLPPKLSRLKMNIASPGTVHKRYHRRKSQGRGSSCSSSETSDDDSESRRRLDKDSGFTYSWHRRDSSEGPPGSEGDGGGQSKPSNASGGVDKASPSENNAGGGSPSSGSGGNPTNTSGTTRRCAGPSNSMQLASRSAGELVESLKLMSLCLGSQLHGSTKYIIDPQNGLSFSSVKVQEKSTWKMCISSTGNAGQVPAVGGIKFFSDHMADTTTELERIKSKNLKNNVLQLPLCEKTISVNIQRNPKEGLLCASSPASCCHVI
# The other results are listed elsewhere or left out.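 The calls were made as follows: active = dose-dependent thermal stabilisation significant by F-test of dose-response against flat model at 10% FDR; inactive = not significant.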
# Compound: Nc1nc2c(ncn2[C@@H]2O[C@H](COP(=O)(O)OP(=O)(O)OP(=O)(O)O)[C@@H](O)[C@H]2O)c(=O)[nH]1
# Assay: dose-dependent thermal stabilisation call (2D-TPP, DLPTP, 10% FDR) (binary (1 = stabilised)); higher = stabilised by the compound
# Details: system: Jurkat gel-filtered lysate; concentration range 1-500 µM
row,Target,dose-dependent thermal stabilisation call
1,SNW1 (UniProt Q13573),inactive: 0
2,SNX3 (UniProt O60493),inactive: 0
3,STX4 (UniProt Q12846),inactive: 0
4,SPAG5 (UniProt Q96R06),active: 1
5,SUGT1 (UniProt Q9Y2Z0),inactive: 0
6,SLC12A2 (UniProt P55011),inactive: 0
7,SNRNP40 (UniProt Q96DI7),inactive: 0
8,SNRPF (UniProt P62306),inactive: 0
9,SUPT6H (UniProt Q7KZ85),inactive: 0
10,SNAP23 (UniProt O00161),inactive: 0
11,SMARCAD1 (UniProt Q9H4L7),inactive: 0
12,SRI (UniProt P30626),inactive: 0
13,SMC4 (UniProt Q9NTJ3),inactive: 0
14,STX6 (UniProt O43752),inactive: 0
15,SLIRP (UniProt Q9GZT3),inactive: 0
16,SYNCRIP (UniProt O60506),inactive: 0
17,STX18 (UniProt Q9P2W9),inactive: 0
18,SNX17 (UniProt Q15036),inactive: 0

# Laid out differently: entries from further up.
row	Target	dose-dependent thermal stabilisation call
7	SNRNP40 (UniProt Q96DI7)	inactive: 0
9	SUPT6H (UniProt Q7KZ85)	inactive: 0

# Going on with the list.

row,Target,dose-dependent thermal stabilisation call
1,SNX9 (UniProt Q9Y5X1),inactive: 0
2,ST13 (UniProt P50502),inactive: 0
3,SH3GLB2 (UniProt Q9NR46),inactive: 0
4,STARD10 (UniProt Q9Y365),inactive: 0
5,STXBP1 (UniProt P61764),inactive: 0
6,SSBP4 (UniProt Q9BWG4),inactive: 0
7,STK35 (UniProt Q8TDR2),active: 1
8,SPIN1 (UniProt Q9Y657),inactive: 0
9,SPAG9 (UniProt O60271),inactive: 0
10,STAT3 (UniProt P40763),inactive: 0
11,SP1 (UniProt P08047),inactive: 0
12,SRFBP1 (UniProt Q8NEF9),inactive: 0
13,SNRK (UniProt Q9NRH2),inactive: 0
14,SPTAN1 (UniProt Q13813),inactive: 0
15,STK39 (UniProt Q9UEW8),active: 1
16,SIVA1 (UniProt O15304),inactive: 0
17,SPTY2D1 (UniProt Q68D10),inactive: 0
18,SPAG7 (UniProt O75391),inactive: 0
